Laboratory results as given in US20210284749A1.
Numbering of substitutions follows the chain as printed. Results are given in words; binding and its absence hold for the method and conditions named. Some results given as binding are weak or reduced against the parent protein; the word gives no strength.

Chains of the proteins cited; added tags and fusions are not shown. Lines headed by an entry give the natural chain unless they say otherwise; changes in a name come on top.
UniProt Q02223: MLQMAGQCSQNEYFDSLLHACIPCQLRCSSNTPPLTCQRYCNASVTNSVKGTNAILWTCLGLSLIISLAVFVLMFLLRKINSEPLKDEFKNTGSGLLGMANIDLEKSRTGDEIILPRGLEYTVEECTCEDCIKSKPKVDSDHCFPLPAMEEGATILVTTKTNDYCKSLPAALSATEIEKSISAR

B1: single clone phage antibody 2C6 (scFv on phage) (scFv, V domains shown)
VH: EVQLLESGGGLVQPGGSLRLSCAASGFTFSNYGMSWVRQAPGKGLEWVSSIDYNGSTYYNPSLKSRFTISRDNSKNTLYLQMNSLRAEDTAVYYCAKEHGLFDSWGQGTLVTVSS
VL: EIVLTQSPGTLSLSPGERATLSCRVSQSISSYLNWYQQKPGQAPRLLIYDASTRAIGIPDRFSGSGSGTDFTLTISRLEPEDFAVYYCQQVNSYPITFGQGTKVEIKR
B2: single clone phage antibody 5B5 (scFv on phage) (scFv, V domains shown)
VH: EVQLLESGGGLVQPGGSLRLSCAASGFTFSGHYWSWVRQAPGKGLEWVSTVSGSGGDTFYADSVKGRFTISRDNSKNTLYLQMNSLRAEDTAVYYCARGHSVMDVWGQGTLVTVSS
VL: B1 VL with V25A, S28G, S30D, L33V, N34A, T53L, I56T, V91Y, Y94W, V104L
B3: single clone phage antibody 5A6 (scFv on phage) (scFv, V domains shown)
VH: EVQLLESGGGLVQPGGSLRLSCAASGFTFSNYGVHWVRQAPGKGLEWVSYISYSGGTYYNPSLKSRFTISRDNSKNTLYLQMNSLRAEDTAVYYCARDSDDFGFDYWGQGTLVTVSS
VL: QSVLTQPPSASGTPGQRVTISCQGDSLRSYYVNWYQQLPGTAPKLLIYDHSKRPTGVPDRFSGSKSGTSASLAISGLRSEDEADYYCQSYDSSTVVFGGGTKLTVLG
B4: single clone phage antibody B58 (scFv on phage) (scFv, V domains shown)
VH: EVQLLESGGGLVQPGGSLRLSCAASGFTFSNYDMSWVRQAPGKGLEWVSWIYPSDSSIYYADSVKGRFTISRDNSKNTLYLQMNSLRAEDTAVYYCARGPFANKYRQFDYWGQGTLVTVSS
VL: QSVLTQPPSASGTPGQRVTISCSGSSSNIGSNSVSWYQQLPGTAPKLLIYADSKRPSGVPDRFSGSKSGTSASLAISGLRSEDEADYYCGSWDYSLSGYVFGGGTKLTVL
B5: single clone phage antibody 5D5 (scFv on phage) (scFv, V domains shown)
VH: EVQLLESGGGLVQPGGSLRLSCAASGFTFSDYGLSWVRQAPGKGLEWVSLIDSSGSSTFYADSVKGRFTISRDNSKNTLYLQMNSLRAEDTAVYYCAKEHGLFDSWGQGTLVTVSS
VL: EIVLTQSPGTLSLSPGERATLSCKASQDIDDDINWYQQKPGQAPRLLIYDASLRATGIPDRFSGSGSGTDFTLTISRLEPEDFAVYYCQQSLRTPITFGQGTKLEIKR
B6: single clone phage antibody 4H9 (scFv on phage) (scFv, V domains shown)
VH: EVQLLESGGGLVQPGGSLRLSCAASGFTFSGYSMSWVRQAPGKGLEWVSSIYHTGYTYYNPSLKSRFTISRDNSKNTLYLQMNSLRAEDTAVYYCARYKSGAFDIWGQGTLVTVSS
VL: EIVLTQSPGTLSLSPGERATLSCRASQSVSRNLAWYQQKPGQAPRLLIYGVSSRATGIPDRFSGSGSGTDFTLTISRLEPEDFAVYYCQQYGSSPPTFGQGTKVEIKR
B7: single clone phage antibody 5C3 (scFv on phage) (scFv, V domains shown)
VH: EVQLLESGGGLVQPGGSLRLSCAASGFTFSDYYIHWVRQAPGKGLEWVSAISGSGGSTYYADSVKGRFTISRDNSKNTLYLQMNSLRAEDTAVYYCASDLGDTTFDSWGQGTLVTVSS
VL: EIVLTQSPGTLSLSPGERATLSCQASDDISNYLNWYQQKPGQAPRLLIYGVSNRASGIPDRFSGSGSGTDFTLTISRLEPEDFAVYYCQQSYSTPPITFGQGTKLEIKR
B8: single clone phage antibody 2G (scFv on phage) (scFv, V domains shown)
VH: EVQLVESGGGLVQPGGSLRLSCAASGFTFSNYAMSWVRQAPGKGLEWVSAISSSGSTIYYADSVKGRFTISRDNSKNTLYLQMNSLRAEDTAVYYCAKAGYYGSIYAFDYWGQGTLVTVSS
VL: DIQMTQSPSSLSASVGDRVTITCRASQSISSYLNWYQQKPGKAPKLLIYATSRLQSGVPSRFSGSGSGTDFTLTISSLQPEDFATYYCQQSSSFPWTFGQGTKVEIKR
B9: anti-BCMA IgG antibody 2C6 (antibody, V domains shown)
VH: B1 VH
VL: B1 VL
B10: anti-BCMA IgG antibody 4H9 (antibody, V domains shown)
VH: B6 VH
VL: B6 VL
B11: anti-BCMA IgG antibody 5C3 (antibody, V domains shown)
VH: B7 VH
VL: B7 VL
B12: anti-BCMA IgG antibody 2G (antibody, V domains shown)
VH: B8 VH
VL: B8 VL
B13: mutant antibody 5A6 LM1 (antibody, V domains shown)
VH: B3 VH
VL: B3 VL with D25E
B14: mutant antibody 5A6 LM8 (antibody, V domains shown)
VH: B3 VH
VL: B3 VL with S26A, S92A
B15: mutant antibody 5A6 LM3 (antibody, V domains shown)
VH: B3 VH
VL: B3 VL with D91E
B16: mutant antibody 5A6 LM2 (antibody, V domains shown)
VH: B3 VH
VL: B3 VL with S26A
B17: mutant antibody 5A6 LM5 (antibody, V domains shown)
VH: B3 VH
VL: B3 VL with D25E, D91E
B18: mutant antibody 5A6 LM7 (antibody, V domains shown)
VH: B3 VH
VL: B3 VL with S26A, D91E
B19: mutant antibody 5A6 LM4 (antibody, V domains shown)
VH: B3 VH
VL: B3 VL with S92A
B20: mutant antibody 5D5 LM1 (antibody, V domains shown)
VH: B5 VH
VL: B5 VL with D31N
B21: mutant antibody 5D5 LM2 (antibody, V domains shown)
VH: B5 VH
VL: B5 VL with D31E
B22: mutant antibody 5D5 LM3 (antibody, V domains shown)
VH: B5 VH
VL: B5 VL with D31A
B23: mutant antibody 5D5 LM5 (antibody, V domains shown)
VH: B5 VH
VL: B5 VL with D32E

The binders below were run against recombinant human BCMA (ELISA antigen, construct not specified) (human) (UniProt Q02223) (assay: single clone phage ELISA, coated recombinant BCMA).
B1 was tested, and the binding was “binds”. For B2, the binding was “binds”. B3 was tested, and the binding was “binds”. For B4, the binding was “binds”. For B5, the binding was “binds”. B6 was tested, and the binding was “binds”. For B7, the binding was “binds”. In the case of B8, the binding is reported as “binds”.

The binders below were run against recombinant human BCMA (ELISA antigen, construct not specified) (human) (UniProt Q02223) (assay: ELISA on coated recombinant human BCMA, antibody titrated, HRP anti-Fab detection, absorbance 450 nm).
With B9 the binding was “binds”. B10 was tested, and the binding was “binds”. With B11 the binding was “binds”. In the case of B12, the binding is reported as “binds”.

The binders below were run against recombinant human BCMA (ELISA antigen, construct not specified) (human) (UniProt Q02223) (assay: ELISA, coated recombinant antigen, IgG titrated).
B9 was tested, and the binding was “binds”. With B10 the binding was “binds”. With B11 the binding was “binds”. In the case of B12, the binding is reported as “binds”.

The binders below were run against recombinant human BCMA (ELISA antigen, construct not specified) (human) (UniProt Q02223) (assay: ELISA on recombinant BCMA).
B13 was tested, and the binding was “binds”. For B14, the binding was “binds”. For B15, the binding was “binds”. With B16 the binding was “binds”. With B17 the binding was “binds”. B18 was tested, and the binding was “binds”. B19 was tested, and the binding was “binds”. With B20 the binding was “binds”. B21 was tested, and the binding was “binds”. With B22 the binding was “binds”. In the case of B23, the binding is reported as “binds”.
